# Results deposited as PubChem BioAssay AID1259254 (NCATS, 2017).
# Test: 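Finding genes that stop cells copying their DNA twice in one cycle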 (primary screen)
# Cell system: human HCT116 colorectal cancer cells
# Reagent: single siRNA against human genes
# Time to read-out: 3 days
# Read-out: 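Imaged Hoechst DNA stain sorts each cell into a cycle phase by DNA amount; per plate, G2 fraction set to 0% for non-targeting and 100% for GMNN siRNA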
# Reading the numbers: G2 robust z-score and G2 cells, % of GMNN control: higher = more G2 cells, more excess DNA replication; raw share of cells in G2: higher = larger share of cells with G2 DNA content
# Rule for the call: 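An siRNA counts as active if its G2 robust z-score lies at least 5 MADs above the screen median; here such calls match roughly 38% of GMNN control or more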
# The deposit covers about 59,000 reagents; shown is a part drawn at random. About 1,550 of all reagents (2.6%) count as active. 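G2 share is only a proxy for re-replication; each gene was hit by three separate siRNAs, and active genes were retested.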 Raw values are not corrected between plates. Reagents against one gene are numbered here. Not given: the amount of reagent.
gene knocked down,siRNA no.,G2 robust z-score,"G2 cells, % of GMNN control",raw share of cells in G2 (%),Outcome
SRPRA,1,-1.03,-4.3,2.53,inactive
SRPRA,2,-0.024,2.8,6.62,inactive
SRPRA,3,-1.23,-5.66,2.61,inactive
CAPG,1,0.783,8.48,6.84,inactive
CAPG,2,-0.218,1.43,5.97,inactive
CAPG,3,3.37,26.7,13.9,inactive
SGO2,1,-0.328,0.661,6.27,inactive
SGO2,2,0.253,4.75,6.44,inactive
SGO2,3,-0.485,-0.447,4.51,inactive
NRXN3,1,0.983,9.88,9.77,inactive
NRXN3,2,0.237,4.63,6,inactive
NRXN3,3,-0.993,-4.02,2.76,inactive
ITGA6,1,1.29,12.1,9.43,inactive
ITGA6,2,-1.6,-8.31,2.52,inactive
ITGA6,3,-0.287,0.951,4.55,inactive
CRHR2,1,2.69,21.9,13.7,inactive
CRHR2,2,1.43,13,9.07,inactive
CRHR2,3,5.57,42.1,16.2,active
PLPPR2,1,-0.449,-0.19,3.44,inactive
PLPPR2,2,1.12,10.9,8.33,inactive
PLPPR2,3,0.345,5.4,5.93,inactive
SEMA3A,1,0.305,5.11,7.64,inactive
SEMA3A,2,-0.734,-2.19,3.03,inactive
SEMA3A,3,-0.804,-2.69,2.43,inactive
ITIH5,1,1.83,15.8,9.93,inactive
ITIH5,2,0.661,7.62,8.6,inactive
ITIH5,3,-1.04,-4.38,3.17,inactive
ULK3,1,3.49,27.5,14.2,inactive
ULK3,2,-1.49,-7.5,2.46,inactive
ULK3,3,0.825,8.77,6.49,inactive
LHFPL2,1,1.18,11.3,10.4,inactive
LHFPL2,2,0.588,7.11,6.91,inactive
LHFPL2,3,0.131,3.89,4.82,inactive
ALG9,1,0.878,9.14,7.51,inactive
ALG9,2,0.991,9.94,8.47,inactive
ALG9,3,3.51,27.7,16.9,inactive
DNAJC5,1,0.444,6.09,4.94,inactive
DNAJC5,2,-0.966,-3.83,4.18,inactive
DNAJC5,3,-0.35,0.506,3.79,inactive
FAM156A,1,0.435,6.03,6.16,inactive
FAM156A,2,-0.751,-2.32,3.67,inactive
FAM156A,3,0.0426,3.27,4.28,inactive
TCF7L1,1,-0.0501,2.61,5.75,inactive
TCF7L1,2,3.26,25.9,16.2,inactive
TCF7L1,3,0.907,9.35,7.58,inactive
TFEB,1,3.86,30.1,18.3,inactive
TFEB,2,2.78,22.5,12.6,inactive
TFEB,3,6.34,47.6,20.1,active
GRK3,1,-0.834,-2.9,4.65,inactive
GRK3,2,0.231,4.59,6.96,inactive
GRK3,3,-0.47,-0.337,3.91,inactive
SAG,1,-0.0881,2.35,5.79,inactive
SAG,2,-0.651,-1.61,4.06,inactive
SAG,3,-0.33,0.648,4.36,inactive
CD200R1,1,2.1,17.8,11.2,inactive
CD200R1,2,0.179,4.23,7.97,inactive
CD200R1,3,0.435,6.03,7.23,inactive

Reformatted: 7 of the entries above
{"gene knocked down": "TCF7L1", "siRNA no.": 2, "G2 robust z-score": 3.26, "G2 cells, % of GMNN control": 25.9, "raw share of cells in G2 (%)": 16.2, "Outcome": "inactive"}
{"gene knocked down": "TCF7L1", "siRNA no.": 3, "G2 robust z-score": 0.907, "G2 cells, % of GMNN control": 9.35, "raw share of cells in G2 (%)": 7.58, "Outcome": "inactive"}
{"gene knocked down": "TFEB", "siRNA no.": 1, "G2 robust z-score": 3.86, "G2 cells, % of GMNN control": 30.1, "raw share of cells in G2 (%)": 18.3, "Outcome": "inactive"}
{"gene knocked down": "TFEB", "siRNA no.": 2, "G2 robust z-score": 2.78, "G2 cells, % of GMNN control": 22.5, "raw share of cells in G2 (%)": 12.6, "Outcome": "inactive"}
{"gene knocked down": "TFEB", "siRNA no.": 3, "G2 robust z-score": 6.34, "G2 cells, % of GMNN control": 47.6, "raw share of cells in G2 (%)": 20.1, "Outcome": "active"}
{"gene knocked down": "GRK3", "siRNA no.": 1, "G2 robust z-score": -0.834, "G2 cells, % of GMNN control": -2.9, "raw share of cells in G2 (%)": 4.65, "Outcome": "inactive"}
{"gene knocked down": "GRK3", "siRNA no.": 2, "G2 robust z-score": 0.231, "G2 cells, % of GMNN control": 4.59, "raw share of cells in G2 (%)": 6.96, "Outcome": "inactive"}

More records follow:
gene knocked down,siRNA no.,G2 robust z-score,"G2 cells, % of GMNN control",raw share of cells in G2 (%),Outcome
SMCO2,1,0.568,6.96,6.38,inactive
SMCO2,2,0.32,5.22,5.54,inactive
SMCO2,3,1.05,10.4,8.37,inactive
HP,1,-1.09,-4.67,3.93,inactive
HP,2,0.324,5.24,6.76,inactive
HP,3,-0.0364,2.71,4.92,inactive
KCNC4,1,1.6,14.3,10.5,inactive
KCNC4,2,-0.877,-3.2,3.7,inactive
KCNC4,3,5.23,39.8,19.9,active
POLR3D,1,-0.134,2.03,5.41,inactive
POLR3D,2,-1.16,-5.21,3.22,inactive
POLR3D,3,-0.647,-1.58,3.4,inactive
CABP4,1,0.285,4.97,4.55,inactive
CABP4,2,0.138,3.94,7.69,inactive
CABP4,3,-0.417,0.0369,3.64,inactive
DPPA5,1,0.0893,3.6,5.22,inactive
DPPA5,2,-0.33,0.642,3.54,inactive
DPPA5,3,-0.778,-2.51,3.18,inactive
MAGEB4,1,0.526,6.67,7.81,inactive
MAGEB4,2,-0.362,0.422,4.39,inactive
MAGEB4,3,0.0412,3.26,4.53,inactive
TBC1D10B,1,-0.879,-3.22,3.2,inactive
TBC1D10B,2,-0.712,-2.04,3.06,inactive
TBC1D10B,3,-0.401,0.144,3.35,inactive
KHDC3L,1,-0.431,-0.0665,3.58,inactive
KHDC3L,2,0.668,7.67,5.53,inactive
KHDC3L,3,11.4,83.4,29.1,active
NFKB2,1,1.26,11.8,9.94,inactive
NFKB2,2,2.99,24,11.1,inactive
NFKB2,3,10.7,78.1,36.4,active
